Measurements reported in PubChem BioAssay AID1259300 (Sanger Institute, 2017)
Shown is a random part of 794 reagents tested. In the full data, 18 (2.3%) got an active call. 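Calls rest on knock-down alone, not drug synergy; depositor treated synergy scores above 0.15 as synergistic; drug doses alone had little viability effect.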 Unmarked entries are inactive. No viability above 1 is reported: the scale is capped. Not stated in the record: the amount of reagent, the time to read-out.

Purpose: 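Which knock-downs harm HCT15 alone or synergise with the drugs BYL719, cetuximab or trametinib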 (primary screen)
Cells: HCT15 colorectal cancer cells
Knock-down reagent: siRNA pool against human genes
Challenge: anchor drug or DMSO vehicle added 24 h after seeding: BYL719 1 µM, cetuximab 5 µg/ml, trametinib 10 nM; drug doses chosen to barely affect viability alone
Detection: 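Cell viability after knock-down, as fraction of non-targeting pool wells averaged over replicates, plus robust z-score for knock-down alone; synergy score per drug (BYL719 1 µM, cetuximab 5 µg/ml, trametinib 10 nM)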
Direction: viability z-score, siRNA alone: higher = more viable cells after knock-down; viability vs non-targeting, siRNA alone: higher = more viable cells; synergy score with BYL719 and synergy score with cetuximab and synergy score with trametinib: higher = stronger synergy of knock-down with drug
Call rule: 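a knock-down without drug that drives the robust viability z-score under -3 is active, i.e. essential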
Calls: active = essential: knock-down alone lowers viability (z below -3); inactive = no strong viability loss with knock-down alone

| gene symbol | viability z-score, siRNA alone | viability vs non-targeting, siRNA alone | synergy score with BYL719 | synergy score with cetuximab | synergy score with trametinib |
| --- | --- | --- | --- | --- | --- |
| DCLK3 (doublecortin like kinase 3) | 0.625 | 1 | 0.223 | 0.0562 | 0.256 |
| MAP3K7 (mitogen-activated protein kinase kinase kinase 7) | 0.625 | 1 | 0.135 | 0.038 | -0.0984 |
| TYK2 (tyrosine kinase 2) | -0.159 | 0.943 | 0.189 | 0.0223 | -0.135 |
| ELF3 (E74 like ETS transcription factor 3) | -2.12 | 0.8 | 0.0624 | 0.0154 | 0.0124 |
| TLK1 (tousled like kinase 1) | -0.128 | 0.945 | 0.0537 | 0.0789 | 0.303 |
| PAK4 (p21 (RAC1) activated kinase 4) | 0.325 | 0.978 | 0.0436 | 0.0627 | -0.0872 |
| CDC7 (cell division cycle 7) | 0.625 | 1 | 0.217 | 0 | -0.0747 |
| TEC (tec protein tyrosine kinase) | -1.59 | 0.839 | -0.00817 | -0.156 | -0.177 |
| GRK5 (G protein-coupled receptor kinase 5) | 0.625 | 1 | 0.101 | 0 | 0.0284 |
| EGFR (epidermal growth factor receptor) | 0.588 | 0.997 | 0.218 | 0.107 | 0.0731 |
| CDKL1 (cyclin dependent kinase like 1) | 0.625 | 1 | 0.229 | 0.0887 | 0.0464 |
| RYK (receptor like tyrosine kinase) | 0.625 | 1 | 0.0394 | 0 | -0.0984 |
| BRAF (B-Raf proto-oncogene, serine/threonine kinase) | 0.518 | 0.992 | 0.191 | 0.0706 | 0.169 |
| CDK4 (cyclin dependent kinase 4) | 0.625 | 1 | 0.087 | 0.0912 | -0.0759 |
| STK33 (serine/threonine kinase 33) | 0.318 | 0.978 | 0.112 | 0.022 | -0.107 |
| DMPK (DM1 protein kinase) | 0.292 | 0.976 | 0.0866 | -0.0242 | 0.0693 |
| MAP3K6 (mitogen-activated protein kinase kinase kinase 6) | 0.625 | 1 | 0.127 | 0.0324 | -0.0929 |
| PKN1 (protein kinase N1) | 0.625 | 1 | 0.12 | 0.0459 | -0.0984 |
| PRKAR1B (protein kinase cAMP-dependent type I regulatory subunit beta) | -0.425 | 0.924 | 0.248 | 0.0576 | -0.12 |
| GCK (glucokinase) | -0.0321 | 0.952 | 0.264 | 0.113 | 0.0921 |
| PLK4 (polo like kinase 4) | 0.625 | 1 | 0.216 | 0.178 | 0.0943 |
| NEK4 (NIMA related kinase 4) | -0.54 | 0.915 | 0.149 | -0.0604 | -0.157 |
| PRAG1 (PEAK1 related, kinase-activating pseudokinase 1) | 0.625 | 1 | 0.252 | 0.00645 | -0.0379 |
| ACVR2A (activin A receptor type 2A) | 0.625 | 1 | 0.123 | 0.0124 | -0.0984 |
| MAP3K8 (mitogen-activated protein kinase kinase kinase 8) | -0.223 | 0.938 | 0.258 | 0.112 | 0.0507 |
| ITPKA (inositol-trisphosphate 3-kinase A) | 0.625 | 1 | 0.11 | 0.0778 | 0.0289 |
| ITPKC (inositol-trisphosphate 3-kinase C) | 0.466 | 0.988 | 0.273 | 0.0534 | 0.155 |
| CERT1 (ceramide transporter 1) | 0.599 | 0.998 | 0.0717 | 0.0415 | -0.0877 |
| PDGFRB (platelet derived growth factor receptor beta) | 0.537 | 0.994 | 0.308 | 0.101 | -0.00398 |
| EPHB4 (EPH receptor B4) | -0.847 | 0.893 | 0.125 | 0.0315 | -0.136 |
| APC (APC regulator of Wnt signaling pathway) | -1.26 | 0.863 | 0.0722 | -0.091 | -0.0578 |
| WNK3 (WNK lysine deficient protein kinase 3) | 0.625 | 1 | 0.126 | 0.103 | -0.0984 |
| GTF2H1 (general transcription factor IIH subunit 1) | -0.108 | 0.947 | 0.223 | 0.324 | 0.0765 |
| ATR (ATR checkpoint kinase) | -0.058 | 0.95 | 0.124 | -0.00874 | -0.136 |

Laid out differently: entries from further up.
{"gene symbol":"PKN1 (protein kinase N1)","viability z-score, siRNA alone":0.625,"viability vs non-targeting, siRNA alone":1,"synergy score with BYL719":0.12,"synergy score with cetuximab":0.0459,"synergy score with trametinib":-0.0984}
{"gene symbol":"PRKAR1B (protein kinase cAMP-dependent type I regulatory subunit beta)","viability z-score, siRNA alone":-0.425,"viability vs non-targeting, siRNA alone":0.924,"synergy score with BYL719":0.248,"synergy score with cetuximab":0.0576,"synergy score with trametinib":-0.12}
{"gene symbol":"GCK (glucokinase)","viability z-score, siRNA alone":-0.0321,"viability vs non-targeting, siRNA alone":0.952,"synergy score with BYL719":0.264,"synergy score with cetuximab":0.113,"synergy score with trametinib":0.0921}
{"gene symbol":"PLK4 (polo like kinase 4)","viability z-score, siRNA alone":0.625,"viability vs non-targeting, siRNA alone":1,"synergy score with BYL719":0.216,"synergy score with cetuximab":0.178,"synergy score with trametinib":0.0943}
{"gene symbol":"NEK4 (NIMA related kinase 4)","viability z-score, siRNA alone":-0.54,"viability vs non-targeting, siRNA alone":0.915,"synergy score with BYL719":0.149,"synergy score with cetuximab":-0.0604,"synergy score with trametinib":-0.157}
